{"source": "the supplement of paper PMC10403144", "note": "The other results are listed elsewhere or left out.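 The calls were made as follows: active = mitochondrial OCR inhibition above 30% at 1 uM; inactive = 30% or less.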 Repeats are few or missing, and single values can be far off.", "data": [{"test_system": "Toxoplasma gondii RH tachyzoites", "assay": "inhibition of mitochondrial O2 consumption rate (% inhibition (relative to pre-injection OCR and atovaquone/antimycin A control)); higher = stronger ETC inhibition", "details": "1 µM; injection port (sequential injection order): A", "values": [{"smiles": "O=C(Nc1nc(-c2ccccn2)cs1)c1cncn1-c1ccccc1", "inhibition of mitochondrial O2 consumption rate": "inactive: -3.98"}, {"smiles": "COc1nc2ccc(Br)cc2cc1[C@@H](c1ccccc1)[C@@](O)(CCN(C)C)c1cccc2ccccc12", "inhibition of mitochondrial O2 consumption rate": "inactive: -7.33"}, {"smiles": "Brc1cncc(-c2cc(NCCCn3ccnc3)nc(-c3ccccc3)n2)c1", "inhibition of mitochondrial O2 consumption rate": "inactive: -2.68"}, {"smiles": "O=C(Nc1cccc(-c2ccc(NCCCN3CCCC3)nc2)c1)c1ccccc1", "inhibition of mitochondrial O2 consumption rate": "inactive: 2.77"}, {"smiles": "CC(=O)NC[C@H]1CN(c2ccc(N3CCSCC3)c(F)c2)C(=O)O1", "inhibition of mitochondrial O2 consumption rate": "inactive: -1.02"}, {"smiles": "CCc1c(C)nc(-n2nc(C)cc2NC(=O)c2ccccc2SC)[nH]c1=O", "inhibition of mitochondrial O2 consumption rate": "inactive: 0.642"}, {"smiles": "COc1ccc(C2=NN(C3CCCCCC3)C(=O)C2(C)C)cc1OCCCCOc1ccc(-c2nn[nH]n2)cc1", "inhibition of mitochondrial O2 consumption rate": "inactive: -3.15"}]}, {"test_system": "Toxoplasma gondii RH tachyzoites", "assay": "inhibition of mitochondrial O2 consumption rate (% inhibition (relative to pre-injection OCR and atovaquone/antimycin A control)); higher = stronger ETC inhibition", "details": "1 µM; injection port (sequential injection order): B", "values": [{"smiles": "C[C@H]1c2cccc(O)c2C(=O)C2=C(O)[C@]3(O)C(=O)C(C(N)=O)=C(O)[C@@H](N(C)C)[C@@H]3[C@@H](O)[C@@H]21", "inhibition of mitochondrial O2 consumption rate": "inactive: -0.284"}, {"smiles": "CNC(=O)c1cc(S(=O)(=O)N2CCN(c3ccccn3)CC2)cs1", "inhibition of mitochondrial O2 consumption rate": "inactive: -5.97"}, {"smiles": "Cc1ccc2nc(C)c(-c3ccn(Cc4ccccc4)n3)n2c1", "inhibition of mitochondrial O2 consumption rate": "inactive: -14.9"}, {"smiles": "Cc1noc(C)c1C(=O)N1CCCC(c2[nH]c3c(C)cccc3c2-c2ccncc2)C1", "note": "(stereo not drawn)", "inhibition of mitochondrial O2 consumption rate": "inactive: -2.31"}, {"smiles": "Cc1ccc(C(=O)Nc2ccc(S(=O)(=O)O)c3cc(S(=O)(=O)O)cc(S(=O)(=O)O)c23)cc1NC(=O)c1cccc(NC(=O)Nc2cccc(C(=O)Nc3cc(C(=O)Nc4ccc(S(=O)(=O)O)c5cc(S(=O)(=O)O)cc(S(=O)(=O)O)c45)ccc3C)c2)c1", "inhibition of mitochondrial O2 consumption rate": "inactive: -2.54"}, {"smiles": "CCN(CC)CCCCCCNc1cc(OC)cc2c(C)ccnc12", "inhibition of mitochondrial O2 consumption rate": "inactive: 1.93"}, {"smiles": "CC(C)c1ncc(-c2ccncc2)c([C@H]2CC[C@H](CNC(=O)c3cccnc3)CC2)n1", "inhibition of mitochondrial O2 consumption rate": "inactive: -3.59"}, {"smiles": "COC(=O)C1=C(C)NC(C)=C(C(=O)OC(C)C)C1c1cccc2nonc12", "note": "(stereo not drawn)", "inhibition of mitochondrial O2 consumption rate": "inactive: 9.02"}, {"smiles": "O=C(Nc1ccnc(-c2cccnc2)n1)c1cc(C(F)(F)F)cc(C(F)(F)F)c1", "inhibition of mitochondrial O2 consumption rate": "inactive: -14.1"}, {"smiles": "O=C1Nc2ccc(Br)cc2C12NCCc1c2[nH]c2ccccc12", "note": "(stereo not drawn)", "inhibition of mitochondrial O2 consumption rate": "inactive: -8.28"}, {"smiles": "Cc1ncc(-c2ccnc(Nc3ccc(S(C)(=O)=O)cc3)n2)n1C(C)C", "inhibition of mitochondrial O2 consumption rate": "inactive: -0.177"}, {"smiles": "Cc1cccc(Cn2ccc(NC(=O)c3ccc4c(c3)OCO4)n2)c1", "inhibition of mitochondrial O2 consumption rate": "inactive: -2.61"}, {"smiles": "COc1ccccc1CNC(=O)c1cc(C2CC2)nc2c1cnn2C(C)C", "inhibition of mitochondrial O2 consumption rate": "inactive: 6.73"}, {"smiles": "COc1cc2ncnc(NC3CCN(Cc4ccccc4)CC3)c2cc1OC", "inhibition of mitochondrial O2 consumption rate": "inactive: -8.73"}, {"smiles": "Cc1[nH]c2ccccc2c1C(c1cccs1)N1CCN(C)CC1", "note": "(stereo not drawn)", "inhibition of mitochondrial O2 consumption rate": "inactive: -13.3"}, {"smiles": "CC1CS(=O)(=O)CCN1/N=C/c1ccc([N+](=O)[O-])o1", "note": "(stereo not drawn)", "inhibition of mitochondrial O2 consumption rate": "inactive: -8.04"}, {"smiles": "CC(C)(CN)c1nc(-c2ccc(Cl)c(O)c2)c(-c2ccnc(N)n2)[nH]1", "inhibition of mitochondrial O2 consumption rate": "inactive: -8.91"}, {"smiles": "COc1ccc(C2(C(=O)Nc3ccc(Br)cc3)CCCC2)cc1", "inhibition of mitochondrial O2 consumption rate": "inactive: -10.7"}, {"smiles": "C[C@@H]1[C@H](O)[C@@H](C)/C=C/C=C/C=C/C=C/C=C/C=C/C=C/[C@H](O[C@@H]2O[C@H](C)[C@@H](O)[C@H](N)[C@@H]2O)C[C@@H]2O[C@](O)(C[C@@H](O)C[C@@H](O)[C@H](O)CC[C@@H](O)C[C@@H](O)CC(=O)O[C@H]1C)C[C@H](O)[C@H]2C(=O)O", "inhibition of mitochondrial O2 consumption rate": "inactive: -9.51"}]}, {"test_system": "Toxoplasma gondii RH tachyzoites", "assay": "inhibition of mitochondrial O2 consumption rate (% inhibition (relative to pre-injection OCR and atovaquone/antimycin A control)); higher = stronger ETC inhibition", "details": "1 µM; injection port (sequential injection order): C", "values": [{"smiles": "Clc1ccc(-n2cc(COc3ccnc4ccccc34)nn2)cc1", "inhibition of mitochondrial O2 consumption rate": "inactive: -12.4"}, {"smiles": "CC(C)(C(=O)Nc1ccc(F)cc1)n1cc(-c2ccccc2F)cn1", "inhibition of mitochondrial O2 consumption rate": "inactive: 2.46"}, {"smiles": "CC(C)(C)c1ccc(N[C@@H]2CCCC[C@H]2NC(=O)c2ccco2)cc1", "inhibition of mitochondrial O2 consumption rate": "inactive: -16.1"}, {"smiles": "COc1ccc2nc(C)cc(OCC(=O)Nc3ccccc3OC)c2c1", "inhibition of mitochondrial O2 consumption rate": "inactive: -10.9"}, {"smiles": "CCOC(=O)c1c(NC(=O)c2c(F)c(F)c(F)c(F)c2F)sc(C(N)=O)c1C", "inhibition of mitochondrial O2 consumption rate": "inactive: -15.7"}, {"smiles": "COc1ccc(Cn2cnc3c(-c4ccco4)nc(Cl)nc32)cc1", "inhibition of mitochondrial O2 consumption rate": "inactive: 2.21"}, {"smiles": "O=C(Nc1cnc2ccccc2c1)c1cccc(-n2cnnn2)c1", "inhibition of mitochondrial O2 consumption rate": "inactive: -22.9"}, {"smiles": "N=C(N)Nc1ccc(-c2ccc(-c3ccc(N=C(N)N)c(Cl)c3)o2)cc1Cl", "inhibition of mitochondrial O2 consumption rate": "inactive: 7.92"}, {"smiles": "CN1CCC(c2cc(-c3ccncc3)c(-c3ccc(F)cc3)[nH]2)CC1", "inhibition of mitochondrial O2 consumption rate": "inactive: -6.29"}, {"smiles": "N=C(N)Nc1ccc(-c2ccc(-c3ccc(NC(=N)N)cc3Cl)o2)c(Cl)c1", "inhibition of mitochondrial O2 consumption rate": "inactive: -4.55"}, {"smiles": "NC(=O)c1cc(Br)ccc1OCCOc1ccccc1", "inhibition of mitochondrial O2 consumption rate": "inactive: -6.41"}, {"smiles": "CCCCS(=O)(=O)Nc1ccc2cnn(C)c2c1", "inhibition of mitochondrial O2 consumption rate": "inactive: 1.74"}]}]}
